# From the supplement of paper PMC11438910
# This is one part of the list. The signal is at background level for most entries.
# B1: 4-127.3 (protein)
# chain 1: QVQLQESGPGLVKPSETLSLTCAVSGYSISSGYGWSWIRQPPGKGLEWIGYIGGSSGSTNYNPSLKSRVTVSKDTSKNQFSLKLSSVTAADTAVYYCARADYCTSTTCYGPNRFDVWGPGVLVTVSS
# chain 2: QAAPTQSPSVSGSAGQSVTISCTGSSSDIGYYNGVSWYQHHPGKAPKLMIYEVSKRPSGVSNRFSGSKSGNTASLTISGLQAADEADYFCSSYAGSGTYIFGAGTRLTVL
# How the values were obtained:
# Test in all cases: fluorescence intensity of antibody binding to polysaccharide-coupled beads; higher = stronger binding
# [1] = target: pneumococcal polysaccharide Pn22A
# Experimental: (§1)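 Recombinant rhesus-murine chimeric IgG1 antibodies were tested against antigen-coupled MagPlex beads in a 96-plex Luminex direct immunoassay (dLIA). The beads carried pneumococcal capsular polysaccharides of 93 serotypes plus C-polysaccharides. Antibody was added at 0.1–12,500 ng/mL for 1 h, then PE anti-mouse IgG, and net MFI was read on a Bio-Plex 3D. Only the rhesus variable regions are printed; constant regions are murine IgG1/kappa/lambda, and the signal peptide is MGWSCIILFLVATATGVHS.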
# [2] = target: pneumococcal polysaccharide Pn22F
# Experimental: as §1
# [3] = target: pneumococcal polysaccharide Pn23A
# Experimental: as §1
# [4] = target: pneumococcal polysaccharide Pn23B
# Experimental: as §1
# [5] = target: pneumococcal polysaccharide Pn23F
# Experimental: as §1
# [6] = target: pneumococcal polysaccharide Pn24A
# Experimental: as §1
# [7] = target: pneumococcal polysaccharide Pn24B
# Experimental: as §1
# [8] = target: pneumococcal polysaccharide Pn24F
# Experimental: as §1
# [9] = target: pneumococcal polysaccharide Pn25A
# Experimental: as §1
# [10] = target: pneumococcal polysaccharide Pn25F
# Experimental: as §1
# [11] = target: pneumococcal polysaccharide Pn27
# Experimental: as §1
# [12] = target: pneumococcal polysaccharide Pn28A
# Experimental: as §1
# [13] = target: pneumococcal polysaccharide Pn28F
# Experimental: as §1
# [14] = target: pneumococcal polysaccharide Pn29
# Experimental: as §1
# [15] = target: pneumococcal polysaccharide Pn3
# Experimental: as §1
# [16] = target: pneumococcal polysaccharide Pn31
# Experimental: as §1
# [17] = target: pneumococcal polysaccharide Pn32A
# Experimental: as §1
# [18] = target: pneumococcal polysaccharide Pn32F
# Experimental: as §1
# [19] = target: pneumococcal polysaccharide Pn33A
# Experimental: as §1
# [20] = target: pneumococcal polysaccharide Pn33B
# Experimental: as §1
# [21] = target: pneumococcal polysaccharide Pn33C
# Experimental: as §1
# [22] = target: pneumococcal polysaccharide Pn33D
# Experimental: as §1
# [23] = target: pneumococcal polysaccharide Pn33F
# Experimental: as §1
# [24] = antibody concentration 81.7561 ng/mL
# [25] = antibody concentration 437.17 ng/mL
# [26] = antibody concentration 2337.65 ng/mL
# [27] = antibody concentration 12500 ng/mL
# [28] = antibody concentration 0.1 ng/mL
# [29] = antibody concentration 0.534724 ng/mL
# [30] = antibody concentration 2.8593 ng/mL
# [31] = antibody concentration 15.2894 ng/mL
binder,measurement,setting,value
B1,fluorescence intensity,[1]; [24],21.5 MFI
same,fluorescence intensity,[1]; [25],22.5 MFI
same,fluorescence intensity,[1]; [26],24.5 MFI
same,fluorescence intensity,[1]; [27],39.5 MFI
same,fluorescence intensity,[2]; [28],31 MFI
same,fluorescence intensity,[2]; [29],31 MFI
same,fluorescence intensity,[2]; [30],32.8 MFI
same,fluorescence intensity,[2]; [31],34 MFI
same,fluorescence intensity,[2]; [24],32.2 MFI
same,fluorescence intensity,[2]; [25],30.5 MFI
same,fluorescence intensity,[2]; [26],34.2 MFI
same,fluorescence intensity,[2]; [27],41.8 MFI
same,fluorescence intensity,[3]; [28],23 MFI
same,fluorescence intensity,[3]; [29],29 MFI
same,fluorescence intensity,[3]; [30],28.8 MFI
same,fluorescence intensity,[3]; [31],27 MFI
same,fluorescence intensity,[3]; [24],28.5 MFI
same,fluorescence intensity,[3]; [25],33 MFI
same,fluorescence intensity,[3]; [26],42 MFI
same,fluorescence intensity,[3]; [27],59.5 MFI
same,fluorescence intensity,[4]; [28],28.5 MFI
same,fluorescence intensity,[4]; [29],33 MFI
same,fluorescence intensity,[4]; [30],30 MFI
same,fluorescence intensity,[4]; [31],32.5 MFI
same,fluorescence intensity,[4]; [24],30 MFI
same,fluorescence intensity,[4]; [25],31 MFI
same,fluorescence intensity,[4]; [26],33 MFI
same,fluorescence intensity,[4]; [27],36.5 MFI
same,fluorescence intensity,[5]; [28],19 MFI
same,fluorescence intensity,[5]; [29],20 MFI
same,fluorescence intensity,[5]; [30],17.5 MFI
same,fluorescence intensity,[5]; [31],18 MFI
same,fluorescence intensity,[5]; [24],19.8 MFI
same,fluorescence intensity,[5]; [25],21 MFI
same,fluorescence intensity,[5]; [26],21 MFI
same,fluorescence intensity,[5]; [27],30 MFI
same,fluorescence intensity,[6]; [28],18.2 MFI
same,fluorescence intensity,[6]; [29],16.5 MFI
same,fluorescence intensity,[6]; [30],16.5 MFI
same,fluorescence intensity,[6]; [31],16 MFI
same,fluorescence intensity,[6]; [24],16.5 MFI
same,fluorescence intensity,[6]; [25],16 MFI
same,fluorescence intensity,[6]; [26],17 MFI
same,fluorescence intensity,[6]; [27],24 MFI
same,fluorescence intensity,[7]; [28],20.5 MFI
same,fluorescence intensity,[7]; [29],18.5 MFI
same,fluorescence intensity,[7]; [30],19 MFI
same,fluorescence intensity,[7]; [31],19 MFI
same,fluorescence intensity,[7]; [24],19.5 MFI
same,fluorescence intensity,[7]; [25],20.5 MFI
same,fluorescence intensity,[7]; [26],21.5 MFI
same,fluorescence intensity,[7]; [27],36.5 MFI
same,fluorescence intensity,[8]; [28],17.8 MFI
same,fluorescence intensity,[8]; [29],20.2 MFI
same,fluorescence intensity,[8]; [30],19.5 MFI
same,fluorescence intensity,[8]; [31],17.8 MFI
same,fluorescence intensity,[8]; [24],18.5 MFI
same,fluorescence intensity,[8]; [25],20.8 MFI
same,fluorescence intensity,[8]; [26],27.8 MFI
same,fluorescence intensity,[8]; [27],32 MFI
same,fluorescence intensity,[9]; [28],25.2 MFI
same,fluorescence intensity,[9]; [29],26 MFI
same,fluorescence intensity,[9]; [30],24 MFI
same,fluorescence intensity,[9]; [31],24 MFI
same,fluorescence intensity,[9]; [24],25.5 MFI
same,fluorescence intensity,[9]; [25],25.5 MFI
same,fluorescence intensity,[9]; [26],29 MFI
same,fluorescence intensity,[9]; [27],38 MFI
same,fluorescence intensity,[10]; [28],31.5 MFI
same,fluorescence intensity,[10]; [29],30.5 MFI
same,fluorescence intensity,[10]; [30],30.5 MFI
same,fluorescence intensity,[10]; [31],31.5 MFI
same,fluorescence intensity,[10]; [24],31.5 MFI
same,fluorescence intensity,[10]; [25],32 MFI
same,fluorescence intensity,[10]; [26],32 MFI
same,fluorescence intensity,[10]; [27],42 MFI
same,fluorescence intensity,[11]; [28],17.8 MFI
same,fluorescence intensity,[11]; [29],17.5 MFI
same,fluorescence intensity,[11]; [30],17.5 MFI
same,fluorescence intensity,[11]; [31],17.8 MFI
same,fluorescence intensity,[11]; [24],17.5 MFI
same,fluorescence intensity,[11]; [25],19.8 MFI
same,fluorescence intensity,[11]; [26],23.5 MFI
same,fluorescence intensity,[11]; [27],76.5 MFI
same,fluorescence intensity,[12]; [28],28.5 MFI
same,fluorescence intensity,[12]; [29],27.5 MFI
same,fluorescence intensity,[12]; [30],27 MFI
same,fluorescence intensity,[12]; [31],28.5 MFI
same,fluorescence intensity,[12]; [24],28.2 MFI
same,fluorescence intensity,[12]; [25],27 MFI
same,fluorescence intensity,[12]; [26],29.2 MFI
same,fluorescence intensity,[12]; [27],35.5 MFI
same,fluorescence intensity,[13]; [28],30.5 MFI
same,fluorescence intensity,[13]; [29],31 MFI
same,fluorescence intensity,[13]; [30],30 MFI
same,fluorescence intensity,[13]; [31],30.5 MFI
same,fluorescence intensity,[13]; [24],31 MFI
same,fluorescence intensity,[13]; [25],31 MFI
same,fluorescence intensity,[13]; [26],33.8 MFI
same,fluorescence intensity,[13]; [27],58.2 MFI
same,fluorescence intensity,[14]; [28],17.5 MFI
same,fluorescence intensity,[14]; [29],15.2 MFI
same,fluorescence intensity,[14]; [30],16.8 MFI
same,fluorescence intensity,[14]; [31],17.5 MFI
same,fluorescence intensity,[14]; [24],17 MFI
same,fluorescence intensity,[14]; [25],19 MFI
same,fluorescence intensity,[14]; [26],22 MFI
same,fluorescence intensity,[14]; [27],57.5 MFI
same,fluorescence intensity,[15]; [28],17 MFI
same,fluorescence intensity,[15]; [29],24.5 MFI
same,fluorescence intensity,[15]; [30],64.2 MFI
same,fluorescence intensity,[15]; [31],256 MFI
same,fluorescence intensity,[15]; [24],901 MFI
same,fluorescence intensity,[15]; [25],2830 MFI
same,fluorescence intensity,[15]; [26],8550 MFI
same,fluorescence intensity,[15]; [27],6870 MFI
same,fluorescence intensity,[16]; [28],15 MFI
same,fluorescence intensity,[16]; [29],14.2 MFI
same,fluorescence intensity,[16]; [30],14 MFI
same,fluorescence intensity,[16]; [31],15.5 MFI
same,fluorescence intensity,[16]; [24],14 MFI
same,fluorescence intensity,[16]; [25],16 MFI
same,fluorescence intensity,[16]; [26],18 MFI
same,fluorescence intensity,[16]; [27],58 MFI
same,fluorescence intensity,[17]; [28],18.5 MFI
same,fluorescence intensity,[17]; [29],19 MFI
same,fluorescence intensity,[17]; [30],16.5 MFI
same,fluorescence intensity,[17]; [31],18 MFI
same,fluorescence intensity,[17]; [24],18.5 MFI
same,fluorescence intensity,[17]; [25],20.5 MFI
same,fluorescence intensity,[17]; [26],21 MFI
same,fluorescence intensity,[17]; [27],36.8 MFI
same,fluorescence intensity,[18]; [28],28.5 MFI
same,fluorescence intensity,[18]; [29],28.8 MFI
same,fluorescence intensity,[18]; [30],30.5 MFI
same,fluorescence intensity,[18]; [31],28.8 MFI
same,fluorescence intensity,[18]; [24],29.5 MFI
same,fluorescence intensity,[18]; [25],32.2 MFI
same,fluorescence intensity,[18]; [26],35.8 MFI
same,fluorescence intensity,[18]; [27],58 MFI
same,fluorescence intensity,[19]; [28],19 MFI
same,fluorescence intensity,[19]; [29],18.5 MFI
same,fluorescence intensity,[19]; [30],18.8 MFI
same,fluorescence intensity,[19]; [31],19 MFI
same,fluorescence intensity,[19]; [24],18.5 MFI
same,fluorescence intensity,[19]; [25],19.5 MFI
same,fluorescence intensity,[19]; [26],35.2 MFI
same,fluorescence intensity,[19]; [27],166 MFI
same,fluorescence intensity,[20]; [28],19 MFI
same,fluorescence intensity,[20]; [29],17.5 MFI
same,fluorescence intensity,[20]; [30],18.2 MFI
same,fluorescence intensity,[20]; [31],18.5 MFI
same,fluorescence intensity,[20]; [24],19.5 MFI
same,fluorescence intensity,[20]; [25],18 MFI
same,fluorescence intensity,[20]; [26],20.2 MFI
same,fluorescence intensity,[20]; [27],21.5 MFI
same,fluorescence intensity,[21]; [28],20.2 MFI
same,fluorescence intensity,[21]; [29],20.5 MFI
same,fluorescence intensity,[21]; [30],20 MFI
same,fluorescence intensity,[21]; [31],19.8 MFI
same,fluorescence intensity,[21]; [24],19 MFI
same,fluorescence intensity,[21]; [25],20.2 MFI
same,fluorescence intensity,[21]; [26],21 MFI
same,fluorescence intensity,[21]; [27],34.5 MFI
same,fluorescence intensity,[22]; [28],16 MFI
same,fluorescence intensity,[22]; [29],17 MFI
same,fluorescence intensity,[22]; [30],17 MFI
same,fluorescence intensity,[22]; [31],17 MFI
same,fluorescence intensity,[22]; [24],16.5 MFI
same,fluorescence intensity,[22]; [25],16.2 MFI
same,fluorescence intensity,[22]; [26],18 MFI
same,fluorescence intensity,[22]; [27],21.2 MFI
same,fluorescence intensity,[23]; [28],13.2 MFI
same,fluorescence intensity,[23]; [29],13.5 MFI
same,fluorescence intensity,[23]; [30],12.5 MFI
same,fluorescence intensity,[23]; [31],13 MFI
same,fluorescence intensity,[23]; [24],14 MFI
same,fluorescence intensity,[23]; [25],15 MFI
same,fluorescence intensity,[23]; [26],20.5 MFI
same,fluorescence intensity,[23]; [27],78.5 MFI

# In another format: results already given
binder	measurement	setting	value
B1	fluorescence intensity	[13]; [28]	30.5 MFI
same	fluorescence intensity	[14]; [30]	16.8 MFI
same	fluorescence intensity	[15]; [29]	24.5 MFI
same	fluorescence intensity	[20]; [30]	18.2 MFI

# Shown as tab-separated lines: entries from further up
binder	measurement	setting	value
B1	fluorescence intensity	[5]; [27]	30 MFI
same	fluorescence intensity	[6]; [28]	18.2 MFI
